These are yes or no findings as the source states them, for the method shown. Binding seen in cells or lysates may run through a third protein. Some results given as binding are weak or reduced against the parent protein; the word gives no strength.

The assay addresses T1, PhoP (B. subtilis (endogenous in MH9237)) (UniProt P13792).
T1 sequence: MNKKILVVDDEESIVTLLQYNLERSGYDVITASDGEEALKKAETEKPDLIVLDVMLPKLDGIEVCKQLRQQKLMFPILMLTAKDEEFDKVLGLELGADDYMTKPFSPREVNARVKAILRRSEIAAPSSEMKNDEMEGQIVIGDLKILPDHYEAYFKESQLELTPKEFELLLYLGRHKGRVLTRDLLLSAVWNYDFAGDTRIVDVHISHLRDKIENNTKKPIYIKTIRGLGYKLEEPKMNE
In words: co-IP + cross-linking.

B1: YycG (protein, UniProt Q45614 1-611)
chain: MNKVGFFRSIQFKITLIYVLLIIIAMQIIGVYFVNQVEKSLISSYEQSLNQRIDNLSYYIEQEYKSDNDSTVIKDDVSRILNDFTKSDEVREISFVDKSYEVVGSSKPYGEEVAGKQTTDLIFKRIFSTKQSYLRKYYDPKSKIRVLISAKPVMTENQEVVGAIYVVASMEDVFNQMKTINTILASGTGLALVLTALLGIFLARTITHPLSDMRKQAMELAKGNFSRKVKKYGHDEIGQLATTFNHLTRELEDAQAMTEGERRKLASVIAYMTDGVIATNRNGAIILLNSPALELLNVSRETALEMPITSLLGLQENYTFEDLVEQQDSMLLEIERDDELTVLRVNFSVIQREHGKIDGLIAVIYDVTEQEKMDQERREFVANVSHELRTPLTTMRSYLEALAEGAWENKDIAPRFLMVTQNETERMIRLVNDLLQLSKFDSKDYQFNREWIQIVRFMSLIIDRFEMTKEQHVEFIRNLPDRDLYVEIDQDKITQVLDNIISNALKYSPEGGHVTFSIDVNEEEELLYISVKDEGIGIPKKDVEKVFDRFYRVDKARTRKLGGTGLGLAIAKEMVQAHGGDIWADSIEGKGTTITFTLPYKEEQEDDWDEA
With B1, the binding result is on record as “binds”.

Values taken from article doi:10.1101/2025.06.29.661413.
